Values from PubChem BioAssay AID652259 (Drosophila RNAi Screening Center, 2013).

Purpose: 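Identify new Wingless signalling regulators in fly cells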 (primary screen)
Cells: Drosophila clone 8 imaginal disc epithelial cells
Reagents: long dsRNA against Drosophila genes
Challenge: pathway stimulated by co-transfected Wingless expression plasmid
Read-out: 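Firefly luciferase from a tcf-site Wingless reporter, measured alongside co-transfected Renilla luciferase that tracks transfection; pathway stimulated by a Wingless plasmid; the firefly-to-Renilla ratio is not deposited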
Reading the numbers: firefly reporter light: higher = more Wg reporter light, before normalisation; Renilla control light: higher = more transfected or surviving cells
Hit rule: 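a knock-down is a candidate when at least two out of four statistical tests show it departing from its plate mean; one test alone signals a weak candidate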
Meaning of the calls: active = candidate regulator (raises or lowers reporter); inactive = not a candidate
In all, the deposit lists about 22,000 reagents; below is a random part of those that have a named target and a result. Over the whole deposit, 233 (1.1%) are marked active. 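Light values are raw, unnormalised plate reads; the ratio scores behind the reporter calls were not deposited.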 Unmarked entries are inactive. Not given: the amount of reagent, the time to read-out, the dose of the treatment.

gene knocked down	amplicon	firefly reporter light, replicate 1	firefly reporter light, replicate 2	Renilla control light, replicate 1	Renilla control light, replicate 2
CG14965	DRSC08424	8432		3350	
CG8834	DRSC07283	5234		2371	
CG11975	DRSC14452	4760		2188	
l(2)k09022 (lethal (2) k09022)	DRSC02108	13965		5057	
CG31862	DRSC01245	20957		12331	
RhoGAP71E (Rho GTPase activating protein at 71E)	DRSC10232	4012		1685	
RhoGAP71E (Rho GTPase activating protein at 71E)	DRSC10837	5928		1337	
RhoGAP71E (Rho GTPase activating protein at 71E)	DRSC10838	13696		3072	
Jra (Jun-related antigen)	DRSC07447	18747		5206	
Spt (Spitting Image)	DRSC07123	3479	8135	506	3578
betaTub65B (beta-Tubulin at 65B)	DRSC11393	1561	7840	1277	3665
Nup44A (Nucleoporin at 44A)	DRSC07248	13482		3427	
aspr (asperous)	DRSC20689	11380		8428	
aspr (asperous)	DRSC20690	16374		9485	
GILT1 (Gamma-interferon-inducible lysosomal thiol reductase 1)	DRSC16565	10352		2685	
nmdyn-D6	DRSC20355	20016		10603	
CG14903	DRSC15024	22023		4433	
RPA3 (Replication protein A3)	DRSC19658	19772		9802	
Vmat (Vesicular monoamine transporter)	DRSC06961	10496		2587	
Vmat (Vesicular monoamine transporter)	DRSC06962	7173		3160	
Vmat (Vesicular monoamine transporter)	DRSC22223	3.17e5	3.92e5	1.73e5	1.89e5
CG31467	DRSC16048	17152		4099	
Vha14-2 (Vacuolar H[+] ATPase 14kD subunit 2)	DRSC12145	18364		3856	
Kdm4A (Lysine demethylase 4A)	DRSC06586	14717		4346	
Vta1 (Vesicle trafficking 1)	DRSC08604	8928		3707	
Vta1 (Vesicle trafficking 1)	DRSC22848	6.47e5	5.76e5	2.61e5	2.55e5
CG34224	DRSC05269	14400		11753	
CG13305	DRSC09975	1619	5366	896	1479
moody	DRSC18515	18072		16000	
CG32832	DRSC01562	20355		9184	
hh (hedgehog)	DRSC16965	19597		17104	
Tim9a	DRSC19753	22386		11690	
CG32333	DRSC08627	16520		4635	
CG32333	DRSC08629	3210		1036	
Alg12 (Alg12 alpha-1,6-mannosyltransferase)	DRSC16416	11661		3348	
CG8066	DRSC16374	8608		3252	
ETHR	DRSC15915	37652		6720	
CR32745 (pseudo)	DRSC17442	2369		882	
CG31697	DRSC22273	3.73e5	4.21e5	1.54e5	1.64e5
Nmda1 (N-methyl-D-aspartate receptor-associated protein)	DRSC07479	8104		2768	
kud (kuduk)	DRSC11086	7356		2898	
CG4000	DRSC15535	29095		8241	
CG4000	DRSC21547	6.39e5	5.98e5	2.43e5	2.04e5
Sodq (Sodesque)	DRSC15924	16323		14842	
CarT (Carcinine transporter)	DRSC03196	10904		2836	
CG9547	DRSC03260	14058		6108	
Dhx15 (DEAH-box helicase 15)	DRSC06036	16801		3520	
tmod (tropomodulin)	DRSC13993	3400		1170	
tmod (tropomodulin)	DRSC14314	5280		2720	
tmod (tropomodulin)	DRSC15076	11752		3497	
tmod (tropomodulin)	DRSC17062	2086	3835	1325	584
HemK1 (HemK methyltransferase 1)	DRSC03253	9537		4119	
CG11714	DRSC09857	4674		2059	
CG12684	DRSC17875	12044		6555	
spin (spinster)	DRSC07176	11491		5024	
spin (spinster)	DRSC22271	4.39e5	4.78e5	1.65e5	1.82e5
CG17002	DRSC04978	6553		2624	
CR1075 (pseudo)	DRSC12144	18745		4884	
crn (crooked neck)	DRSC18184	21303		11672	
crn (crooked neck)	DRSC18185	23405		12260	
crn (crooked neck)	DRSC18755	3248	6048	629	1856
CG3494	DRSC04375	2028	5940	640	1890
AdipoR (Adiponectin receptor)	DRSC15767	3035	6721	1360	1840
tum (tumbleweed)	DRSC07575	6560		2106	
Trissin	DRSC14994	19461		6145	
Syx17 (Syntaxin 17)	DRSC08591	7293		2625	
CG9286	DRSC16467	7687		1381	
Oda (Ornithine decarboxylase antizyme)	DRSC07626	4705		1188	
Gr63a (Gustatory receptor 63a)	DRSC08438	3803		2229	
Tmtc4 (Transmembrane O-mannosyltransferase targeting cadherins 4)	DRSC15702	17347		3992	
CG15506	DRSC15047	6768		2808	
CG6733	DRSC16103	22448		16857	
uri (unconventional prefoldin RPB5 interactor)	DRSC04111	10802		2688	
